# Laboratory results as given in patent US20080267936A1, “Treatment of trauma-hemorrhage with short oligopeptides” (Biotempt B.V., priority 2007, published 2008).
# Tested on: hemorrhagic shock
# Test: Hemorrhagic shock model, Example 1 (bled to MAP 40 mmHg, 0.9% NaCl resuscitation): blood cells, hematocrit, hepatic blood flow
# Assay type: in vivo, Wistar rats
# Conditions: 5 mg/kg i.v. 30 minutes after induction of shock
# Experimental: Adult male specific pathogen-free Wistar rats (Harlan CPB, Zeist, The Netherlands), weighing 350 to 400 g were used after a minimum seven-day acclimation period. The animals were housed under barrier conditions and kept at 25° C. with a twelve-hour light/dark cycle. Rats were allowed free access to water and chow (−). All procedures were performed in accordance with the Principles of Laboratory Animal Care (NIH publication No. 86-23, revised 1985) under a protocol approved by the Committee on Animal Research of the Erasmus University (protocol EUR 365).
# The rats were fasted overnight but were allowed free access to water before the experiment. Subsequent to endotracheal intubation, the rats were mechanically ventilated with an isoflurane (−) N2O/O2 mixture at 60 breaths/minute. Body temperature was continuously maintained at 37.5° C. by placing the animals on a thermo controlled “half-pipe” (UNO, The Netherlands). Polyethylene tubes (PE-50, Becton Dickinson; St. Michielsgestel, The Netherlands) were flushed with heparin and placed via the right carotid artery in the aorta and in the right internal jugular vein. The animals received no heparin before or during the experiment.
# Mean arterial pressures (MAP) was measured using transducers (Becton Dickinson) that were connected in line to an electronic recorder (Hewlett Packard, 78354-A Germany) for electronically calculated mean pressures and continuous measurement of the animal's blood pressure. Under semi-sterile conditions, a median laparotomy was performed and ultrasonic perivascular flow probes (Transonic Systems Inc, Maastricht, The Netherlands) were placed on the common hepatic artery and the portal vein. A supra pubic catheter was placed to monitor the urine production during and after resuscitation. […]
# The hepatic arterial blood flow (QHA) and hepatic portal venous blood flow (QVP) were measured with transit time ultrasonic perivascular flow probes, connected to an ultrasonic meter (T201; Transonic Systems, Inc., Maastricht, NL). Systemic and hepatic hemodynamics were continuously measured. […]
row,Substance,"hematocrit following trauma-hemorrhage, treated vs non-treated groups"
1,"AQGV [synthetic tetrapeptide, alanine replacement variant of LQGV from loop two of the β-subunit of hCG]",similar
2,"LAGV [synthetic tetrapeptide, alanine replacement variant of LQGV from loop two of the β-subunit of hCG]",similar
3,"LQGV [synthetic tetrapeptide, part of the primary structure of loop two of the β-subunit of hCG]",similar
